PubChem BioAssay AID686943 – Drosophila RNAi Screening Center | 2013
In all, the deposit lists about 23,000 reagents; shown is an unselected part of those that have a named target and a result. 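Extra replicates exist only for a retested subset of genes; insulin dose and duration not given; both raised and lowered dpERK matter.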 Names joined by + are all predicted targets of the reagent. Reagent sequences are not shown. The record does not give: the amount of reagent, the time to read-out.

Screen: 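Fly genes whose loss alters ERK activation after insulin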 (primary screen)
System: Drosophila S2R+ haemocyte-like cells expressing YFP-tagged ERK (Rolled)
Reagents: long dsRNA against Drosophila genes
Challenge: insulin stimulation versus unstimulated cells; dose and duration not given
Detection: 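Antibody staining for doubly phosphorylated ERK divided by ERK-YFP signal, as plate z-scores, in insulin-treated and untreated cells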
Reading the numbers: replicate 1, z-score of dpERK with insulin and replicate 2, z-score of dpERK with insulin: higher = more active ERK per ERK-YFP after insulin; replicate 1, z-score of dpERK under basal conditions: higher = more basal active ERK per ERK-YFP; replicate 1, z-score of ERK-YFP with insulin: higher = more YFP-tagged ERK signal

| gene | dsRNA | replicate 1, z-score of dpERK with insulin | replicate 2, z-score of dpERK with insulin | replicate 1, z-score of dpERK under basal conditions | replicate 1, z-score of ERK-YFP with insulin |
| --- | --- | --- | --- | --- | --- |
| CG12693 | DRSC17882 | 0.53 | 0.13 | 0.48 | -0.74 |
| RpS27A | DRSC03421 | -1.36 | -1.39 | -3.39 | -1.83 |
| CG15711 | DRSC06582 | 0.58 | 0.63 | -0.77 | 1.24 |
| CG34230 | DRSC05317 | -0.7 | 0.17 | 2.49 | 0.27 |
| Fuca | DRSC10591 | -0.28 | 0.29 | 2 | 0.26 |
| Stt3B | DRSC16781 | -0.12 | 0.46 | -0.04 | 0.32 |
| Burs | DRSC14595 | 0.31 | 0.03 | 0.41 | 0.74 |
| Est-6 | DRSC11162 | -0.22 | 0.3 | -0.03 | 0.04 |
| CG18542 + CG32939 | DRSC15342 | -0.2 | 0.92 | 2.98 | -0.15 |
| AttD | DRSC16272 | 0.75 | -0.41 | 0.31 | 0.46 |
| edl | DRSC06516 | 0.32 | 0.8 | -0.64 | 0.32 |
| CG14191 | DRSC19546 | 0 | -0.19 | -0.48 | 0.2 |
| Tpr2 | DRSC03461 | -0.49 | 1.04 | -0.72 | 1.34 |
| CG11598 | DRSC14331 | 0.15 | 0.61 | -0.89 | 0.44 |
| CG2915 | DRSC06842 | 0.59 | 0.28 | -0.18 | 0.04 |
| CG34183 | DRSC01099 | 1 | 0.68 | -1.03 | -0.63 |
| Zyx | DRSC17186 | 0.53 | 0.82 | 0.37 | 0.09 |
| Arpc2 | DRSC02113 | -1.75 | -1.39 | -0.48 | 0.81 |
| CG30392 | DRSC22341 | 0.24 | -0.22 | -0.77 | 0.6 |
| Chd3 | DRSC11114 | -0.65 | -1.55 | -0.09 | 0.58 |
| CG6006 | DRSC13137 | 0.38 | -0.63 | 0.44 | 0.58 |
| CG6006 | DRSC15946 | -0.17 | 0.06 | 0.57 | -0.47 |
| Spn43Ad | DRSC06770 | 0.39 | -0.38 | -0.16 | 0.39 |
| Caf1-55 | DRSC16596 | -2.4 | -3.03 | -3.17 | -1.08 |
| ttk | DRSC14078 | -0.04 | 0.03 | -0.9 | 1.19 |
| ttk | DRSC17091 | -3.82 | -1.57 | -2.06 | 1.43 |
| CG17163 | DRSC20901 | -0.83 | -0.7 | -0.77 | 1.45 |
| kel | DRSC03554 | 0.71 | -0.53 | 0.83 | -0.23 |
| CG5404 | DRSC15793 | 1.18 | 0.21 | -0.57 | 0.62 |
| RpL18 | DRSC11016 | -1.95 | -0.75 | -0.33 | -3.89 |
| RpL18 | DRSC22323 | -0.89 | -0.76 | 6.36 | -4.15 |
| ProtB | DRSC03373 | 0.14 | -0.6 | -0.95 | -0.29 |
| Mip | DRSC10639 | -0.05 | 1.13 | 0.63 | -1.22 |
| TwdlC | DRSC14749 | 0.98 | -0.05 | 0.87 | 0.06 |
| Cyp313a3 | DRSC16626 | 0.47 | 0.28 | -0.71 | 0.13 |
| dpr5 | DRSC15766 | -1.25 | 0.35 | 0.91 | 2.09 |

The list goes on; the last 7 above are carried over.
| gene | dsRNA | replicate 1, z-score of dpERK with insulin | replicate 2, z-score of dpERK with insulin | replicate 1, z-score of dpERK under basal conditions | replicate 1, z-score of ERK-YFP with insulin |
| --- | --- | --- | --- | --- | --- |
| RpL18 | DRSC11016 | -1.95 | -0.75 | -0.33 | -3.89 |
| RpL18 | DRSC22323 | -0.89 | -0.76 | 6.36 | -4.15 |
| ProtB | DRSC03373 | 0.14 | -0.6 | -0.95 | -0.29 |
| Mip | DRSC10639 | -0.05 | 1.13 | 0.63 | -1.22 |
| TwdlC | DRSC14749 | 0.98 | -0.05 | 0.87 | 0.06 |
| Cyp313a3 | DRSC16626 | 0.47 | 0.28 | -0.71 | 0.13 |
| dpr5 | DRSC15766 | -1.25 | 0.35 | 0.91 | 2.09 |
| MED11 | DRSC10739 | -7.85 | -5.29 | -3.15 | -1.3 |
| Hat1 | DRSC12298 | 0.35 | 0.6 | 0.16 | 0.27 |
| CG4645 | DRSC19907 | 0.12 | 0.55 | 1.81 | -0.21 |
| CG2790 | DRSC04045 | -0.02 | -0.22 | 0.6 | 0.19 |
| Lsp2 | DRSC09841 | -0.49 | -0.13 | -0.73 | 0.73 |
| Lsp2 | DRSC11216 | -0.21 | -0.38 | 0.23 | 0.57 |
| Ppi1 | DRSC15421 | -0.93 | -0.23 | -0.11 | 0.89 |
| mth | DRSC08725 | -0.05 | -0.3 | 0.6 | 1.2 |
| mRpL42 | DRSC06235 | -0.38 | -0.95 | -0.53 | 1.16 |
| Sec5 | DRSC00714 | 0.27 | -0.33 | 0.16 | 0.52 |
| Pink1 | DRSC18361 | 0.28 | 1.09 | -0.6 | 0.19 |
| mRpS18C | DRSC16538 | -0.61 | 0 | 1.47 | 1.27 |
| CdGAPr | DRSC03289 | 2 | 0.03 | 0.16 | -0.57 |
| CG11529 | DRSC09839 | -0.57 | 0.4 | -0.15 | -0.05 |
| CG10651 | DRSC02086 | 0.31 | -0.66 | 0.5 | 0.57 |
| Cad89D | DRSC15022 | 1.67 | 0.47 | -1.37 | -0.6 |
| CG1545 | DRSC21532 | -0.16 | -0.24 | 1.02 | 0.52 |
| Tace | DRSC16340 | 0.51 | 0.56 | -0.04 | 0.28 |
| CG4364 | DRSC02742 | -0.07 | -0.02 | -1.01 | -0.91 |
| COX7A | DRSC16514 | -1.04 | -1.45 | -0.82 | 2.24 |
| NaPi-III | DRSC10893 | -0.25 | 0.24 | 0.2 | -0.1 |
| NaPi-III | DRSC10894 | -0.91 | -1.1 | -0.9 | -0.98 |
| NaPi-III | DRSC22953 | 1.41 | 0.86 | 0.75 | -0.03 |
